These are yes or no findings as the source states them, for the method shown. In cells and extracts the contact can be indirect. A yes stands for co-enrichment or nearness to the bait. Other partners may have been found.
Molecular target: T1, OTU Domain-Containing Protein 1 (OTUD1), endogenous in neonatal rat ventricular myocytes (rat (endogenous in neonatal rat ventricular myocytes)) (UniProt D3ZNC0)
T1 sequence: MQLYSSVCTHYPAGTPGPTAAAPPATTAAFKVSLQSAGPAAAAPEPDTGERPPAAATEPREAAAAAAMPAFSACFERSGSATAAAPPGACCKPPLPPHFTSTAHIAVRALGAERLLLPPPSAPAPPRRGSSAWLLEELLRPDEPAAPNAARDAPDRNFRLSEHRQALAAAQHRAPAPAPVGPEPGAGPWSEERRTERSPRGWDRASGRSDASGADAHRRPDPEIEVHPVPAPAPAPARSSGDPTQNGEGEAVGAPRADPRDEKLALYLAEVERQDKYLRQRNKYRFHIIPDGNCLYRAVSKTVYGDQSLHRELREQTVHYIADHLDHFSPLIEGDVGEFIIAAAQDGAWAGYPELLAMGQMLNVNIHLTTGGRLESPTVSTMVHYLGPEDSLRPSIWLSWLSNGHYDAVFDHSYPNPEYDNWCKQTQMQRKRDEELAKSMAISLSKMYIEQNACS
Experiment: affinity purification with mass spectrometry; anti-OTUD1 antibody added to NVRM lysates for IP, rabbit IgG as negative control, LC-MS/MS

Chains of the proteins cited; added tags and fusions are not shown.
UniProt P52631: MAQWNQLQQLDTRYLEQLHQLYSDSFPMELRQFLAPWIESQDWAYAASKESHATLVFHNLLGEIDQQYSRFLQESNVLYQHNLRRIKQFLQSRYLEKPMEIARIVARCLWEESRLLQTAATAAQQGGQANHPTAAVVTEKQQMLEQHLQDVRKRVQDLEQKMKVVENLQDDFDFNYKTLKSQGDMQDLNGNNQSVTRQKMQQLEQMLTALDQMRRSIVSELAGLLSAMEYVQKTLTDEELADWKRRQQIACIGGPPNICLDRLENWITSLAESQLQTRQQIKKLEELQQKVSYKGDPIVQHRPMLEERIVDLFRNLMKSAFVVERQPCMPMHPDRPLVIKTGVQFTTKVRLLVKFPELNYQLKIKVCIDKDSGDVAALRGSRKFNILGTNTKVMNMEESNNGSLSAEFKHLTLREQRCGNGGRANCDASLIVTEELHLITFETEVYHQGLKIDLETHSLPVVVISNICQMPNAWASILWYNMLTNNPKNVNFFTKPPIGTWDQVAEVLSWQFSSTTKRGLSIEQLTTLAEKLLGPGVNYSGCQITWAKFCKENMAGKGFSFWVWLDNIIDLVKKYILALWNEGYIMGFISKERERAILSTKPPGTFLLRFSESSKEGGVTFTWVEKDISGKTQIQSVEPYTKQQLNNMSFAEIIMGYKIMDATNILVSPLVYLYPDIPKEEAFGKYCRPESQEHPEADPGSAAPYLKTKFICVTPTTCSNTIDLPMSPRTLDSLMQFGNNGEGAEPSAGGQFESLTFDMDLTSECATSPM

In the case of “signal transducer and activator of transcription 3 (STAT3), endogenous in neonatal rat ventricular myocytes (from UniProt P52631 1-770)”, the binding is reported as “binds”.

Reference: publication PMC10157730
